At least one structure is not confirmed: it was looked up by name or label, or the drawing left a doubt.
Tested on: anaplastic large cell lymphoma cells (DEL)
Experiment: In vitro potency (CellTiter-Glo, 96 h) on DEL
Assay type: cell-based
Settings: CPT free drugs; CellTiter-Glo after 96 h exposure
Procedure: In vitro potency was assessed on multiple cancer cell lines. All cell lines were authenticated by STR profiling at IDEXX Bioresearch and cultured for no more than 2 months after resuscitation. Cells cultured in log-phase growth were seeded for 24 hours in 96-well plates containing […] RPMI 1640 supplemented with 20% FBS. Serial dilutions of antibody-drug conjugates in cell culture media were prepared at 4x working concentrations, and 50 μL of each dilution was added to the 96-well plates. Following addition of test articles, cells were incubated with test articles for 4 days at […]. After 96 hours, growth inhibition was assessed by CellTiterGlo® (Promega, Madison, WI) and luminescence was measured on a plate reader.
Cell viability was determined by CellTiter-Glo staining after 96h exposure to ADC. ND=Not Determined. In the following tables, “Ex_” refers to a drug linker number. For example, “Ag4-Ex_4a” refers to a conjugate of an Ag4 antibody with drug linker 4a.

For `CC[C@@]1(O)C(=O)OCc2c1cc1n(c2=O)Cc2c-1nc1cc3c(cc1c2CNC(=O)OCc1ccc(NC(=O)[C@H](CCCCN)NC(=O)[C@@H](NC(=O)CCOCCOCCOCCOCCNC(=O)CCN2C(=O)C=CC2=O)C(C)C)cc1)CCO3` [Compound 14, [4-[[(2S)-6-amino-2-[[(2S)-2-[3-[2-[2-[2-[2-[3-(2,5-dioxopyrrol-1-yl)propanoylamino]ethoxy]ethoxy]ethoxy]ethoxy]propanoylamino]-3-methyl-butanoyl]amino]hexanoyl]amino]phenyl]methyl N-[[(5S)-5-ethyl-5-hydroxy-6,10-dioxo-7,20-dioxa-11,24-diazahexacyclo[11.11.0.02,11.04,9.015,23.017,21]tetracosa-1(13),2,4(9),14,16,21,23-heptaen-14-yl]methyl]carbamate;2,2,2-trifluoroacetic acid], the IC50 was 0.6 nM.

Reference: patent publication US20230381321A1, “CAMPTOTHECIN CONJUGATES” (priority 2022, published 2023)
